# Data: PubChem BioAssay AID1347076 (National Center for Advancing Translational Sciences (NCATS), 2019)
# Among all 400,000 compounds or so, about 13,000 (3.2%) were called active. The shares of active, inactive and inconclusive entries below differ from those in the screen. The call rests on the fitted dose curve; in most records, active means well fitted cell-killing curve with a large enough effect; inconclusive means small, poorly fitted or top-dose-only effect, or effect the other way; inactive means flat fitted curve, though single readings scatter. Where the call is inconclusive, the potency comes from a doubtful curve fit.
# Test: qHTS assay for MDR1-selective chemotherapeutics: Primary screen using the drug-selected MDR subline cells KB-V1; further: nearly all actives have a fitted effect of over 60% in size
# Conditions: KB-V1 MDR cells viability, CellTiter-Glo, 72 h; activity change, negative = cytotoxicity: at 46.1 µM (top of the series)
# Procedure, shortened: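 Following 72 h at 37 degrees C with compound, KB-V1 cell viability was read by CellTiter-Glo luminescence, medium being phenol-red-free DMEM plus 10% FBS; concentration-response parameters came from normalized, curve-fitted qHTS data.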
# On the % scale 0 is the no-effect control and ±100 the full control effect; potency means the concentration at half of the fitted maximal effect.
Structure (SMILES),Potency,"activity change, negative = cytotoxicity"
CCCNc1nc(N2CCCC2)nc(N2CCCC2)n1,"inconclusive: 6.51 µM [cytotoxic, partial curve]",
COc1ccc(C(=O)NCC(C)(C)CNC(=O)c2ccc(OC)c(OC)c2)cc1OC,,inconclusive: -8.46%
CC1CCCCN1S(=O)(=O)c1ccc(C(=O)Nc2nnc(C3CC3)o2)cc1 (stereo not given),"inconclusive: 18.4 µM [cytotoxic, single point]",
Cc1cccc(C)c1NC(=O)CNC(=O)CNC(=O)c1ccc2ccccc2c1,,inactive: 16.6%
C/C(=N\NC(=O)CNc1cccc(Cl)c1C)C1CC1,"inconclusive: 20.6 µM [rising, single point]",
CC(=O)Nc1ccc(S(=O)(=O)N2CCN(CC3CC4C=CC3C4)CC2)cc1 (stereo not given),"inconclusive: 11.6 µM [cytotoxic, partial curve]",
COCc1cc(=O)[nH]c(Nc2nc(C)c3ccccc3n2)n1,active: 20.6 µM,
O=C([C@@H]1CC=C[C@@H]2CCN(C3CC3)C(=O)[C@@H]21)N1CCN(c2ccccc2)CC1,"inconclusive: 23.1 µM [cytotoxic, partial curve, poor fit]",
Cc1ccc(NCc2nnc(SCC(=O)Nc3ncc(C)s3)n2Cc2ccco2)c(C)c1,,inactive: -17.4%
Fc1ccc(C2CC(c3cccs3)=NN2C(=S)Nc2ccccc2)cc1 (stereo not given),active: 20.6 µM,
CCOc1ccc2c(c1)[nH]c(=S)n2C,,inactive: -6.07%
O=C(NC1CCCCC1)C(c1c(F)cccc1Cl)N(C(=O)c1csnn1)C1CC1 (stereo not given),,inactive: -10.4%
Cc1[nH]n(-c2ccccc2)c(=O)c1/C=N/NC(=O)c1cccc([N+](=O)[O-])c1,"inconclusive: 23.1 µM [cytotoxic, single point]",
CN1C(=O)C(C)(C)c2cc(S(=O)(=O)NCC3CCC(C(=O)NCc4ccc(F)cc4)CC3)ccc21 (stereo not given),,inactive: 17.6%
O=C(Cn1c2ccccc2c(=O)c2ccccc21)Nc1ccccc1F,"inconclusive: 5.8 µM [cytotoxic, partial curve, poor fit]",
CSc1ccc(CCNC(=O)c2ccc(CS(=O)Cc3ccc(Cl)cc3)o2)cc1 (stereo not given),"inconclusive: 18.4 µM [cytotoxic, partial curve, poor fit]",
CC(=O)OC1c2ccccc2C(=O)N1Cc1ccccc1Cl (stereo not given),"inconclusive: 2.31 µM [rising, partial curve, poor fit]",
COc1ccc(S(=O)(=O)N2CCCC(C(=O)NCc3cccnc3)C2)cc1 (stereo not given),"inconclusive: 29.1 µM [rising, partial curve, poor fit]",
CC(C(=O)Nc1cccnc1)n1cc([N+](=O)[O-])cn1 (stereo not given),,inactive: 5.1%
COc1ccc(/C=C/C(=O)NCC(=O)N/N=C(/CCC(=O)O)c2ccccc2)cc1,,inconclusive: -17.6%
O=C(NCCn1cc(SCc2ccccc2)c2ccccc21)c1ccccc1F,"inconclusive: 29.1 µM [cytotoxic, single point]",
Nc1[nH]c(C(=O)c2ccccc2)c(-c2cccc3ccccc23)c1C(=O)NCc1ccccc1,"inconclusive: 5.8 µM [cytotoxic, partial curve]",
O=C(CSc1nc(-c2cccs2)nc2cc(=O)[nH]n12)Nc1ccccc1Cl,,inactive: -7.56%

# An excerpt of these results, with tabs:
Structure (SMILES)	Potency	activity change, negative = cytotoxicity
CSc1ccc(CCNC(=O)c2ccc(CS(=O)Cc3ccc(Cl)cc3)o2)cc1 (stereo not given)	inconclusive: 18.4 µM [cytotoxic, partial curve, poor fit]	
CC(=O)OC1c2ccccc2C(=O)N1Cc1ccccc1Cl (stereo not given)	inconclusive: 2.31 µM [rising, partial curve, poor fit]	
COc1ccc(S(=O)(=O)N2CCCC(C(=O)NCc3cccnc3)C2)cc1 (stereo not given)	inconclusive: 29.1 µM [rising, partial curve, poor fit]	

# More records follow.

Structure (SMILES),Potency,"activity change, negative = cytotoxicity"
N#Cc1c(C(F)(F)F)cc(-c2cccs2)nc1SCc1cccnc1,"inconclusive: 16.4 µM [cytotoxic, single point]",
CCc1ccc2c(c1)NC(c1cccnc1)=NC(c1ccc(C(C)(C)C)cc1)=N2,"inconclusive: 29.1 µM [cytotoxic, single point]",
Cc1oc(/C=N/NC(=O)CN(c2ccccc2Cl)S(C)(=O)=O)cc1Br,,inactive: 0.141%
CC(Sc1nnc(-c2cccnc2)n1N)C(=O)Nc1ccc2c(c1)OCCO2 (stereo not given),,inactive: -18.6%
CCOC(=O)c1c(NCC(C)C)c2ccccc2[nH]c1=O,,inconclusive: -34.3% [cytotoxic]
Cc1ccc(-n2ncc3c2CC(C)(C)CC3NC(=O)CCc2cccnc2)cc1 (stereo not given),"inconclusive: 4.11 µM [cytotoxic, partial curve]",
C/C(CC(=O)NCc1ccccc1Cl)=N/NC(=O)c1ccccn1,"inconclusive: 29.1 µM [rising, single point]",
N#Cc1c(Nc2ccccc2)sc(C(=O)C2CC2)c1N,"inconclusive: 23.1 µM [rising, single point]",
O=C(Nc1ccccc1Cl)c1cc2c(-c3ccccc3)nn(-c3ccccc3)c2s1,,inactive: -7.98%
CC(C)c1cc(C(=O)OCC(=O)NC(=O)NCc2ccco2)c(O)c(C(C)C)c1,"inconclusive: 16.4 µM [cytotoxic, single point]",
CC(C)(C)C(=O)Nc1cccc(-c2cc(-c3c(Cl)cccc3Cl)no2)c1,"inconclusive: 32.6 µM [cytotoxic, partial curve, poor fit]",
CSc1nc(N(C)NC(=O)c2ccc(F)cc2)c2ccccc2n1,active: 1.03 µM,
O=C(Nc1ccc(F)cc1F)c1sccc1SCc1cccc(C(F)(F)F)c1,active: 16.4 µM,
CC(C)(C)NC(=O)C(C1CC1)n1c(=O)c(-c2ccccc2)nc2ccccc21 (stereo not given),"inconclusive: 5.8 µM [cytotoxic, partial curve, poor fit]",
O=C(Nc1ccccc1C(=O)OCC(=O)c1c[nH]c2ccccc12)c1ccco1,"inconclusive: 25.9 µM [cytotoxic, single point]",
COc1ccccc1N1CCN(CCCCN2C(=O)C3CCCN3C2=O)CC1 (stereo not given),,inactive: 0%
Cc1cc(C)c2oc(-c3ccc(C)c(NC(=S)NC(=O)c4cccs4)c3)nc2c1,,inactive: -19.1%
COc1ccc(N(C)S(=O)(=O)c2cccc(C(=O)NCc3ccc(C)cc3)c2)cc1,active: 6.51 µM,
COc1ccccc1NS(=O)(=O)c1cccc(NS(=O)(=O)c2cc(C(=O)O)ccc2OC)c1,"inconclusive: 1.16 µM [rising, single point]",
CCn1c(-c2cc(-c3ccccc3OC)nc3ccccc23)n[nH]c1=S,"inconclusive: 5.17 µM [cytotoxic, partial curve, poor fit]",
COC(=O)/C=C(\C)N=Nc1c(O)[nH]c2ccccc12,"inconclusive: 18.4 µM [cytotoxic, single point]",
COc1ccc(-c2nc3scc(CCNC(=O)Cc4ccc(F)cc4)n3n2)cc1,,inactive: 8.75%
